Whole data set: some 33,000 sequences, median “E-score (-0.5 to 0.5)” near -0.0014, cut for the highest 2% near 0.25. Some of the results follow.
Each sequence was assayed against T1, Cad1 (UniProt P24813) (assay: PBM E-score (8-mer binding enrichment) (E-score (-0.5 to 0.5)); higher = stronger / more preferred TF binding). Conditions: protein concentration: 100 nM; construct: GST-full length.
T1 sequence: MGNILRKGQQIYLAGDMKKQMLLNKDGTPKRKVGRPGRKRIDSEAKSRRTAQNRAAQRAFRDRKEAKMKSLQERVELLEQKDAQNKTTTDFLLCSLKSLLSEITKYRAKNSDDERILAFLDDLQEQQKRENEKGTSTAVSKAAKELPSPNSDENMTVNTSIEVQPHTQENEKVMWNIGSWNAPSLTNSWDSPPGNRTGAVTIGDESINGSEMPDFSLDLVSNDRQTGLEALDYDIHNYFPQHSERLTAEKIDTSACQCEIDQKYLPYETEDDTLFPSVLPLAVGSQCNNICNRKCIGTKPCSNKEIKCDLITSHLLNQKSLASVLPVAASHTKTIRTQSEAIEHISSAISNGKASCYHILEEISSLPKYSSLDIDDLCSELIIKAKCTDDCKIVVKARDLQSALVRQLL
Method in brief: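 Universal all-10-mer Agilent arrays, double-stranded by primer extension on fresh or once-stripped slides, were probed with about 100-200 nM GST-tagged yeast transcription factors made by PURExpress. Fluorescent anti-GST detected bound protein, and masliner normalised the scans. E-scores from the Universal PBM Analysis Suite were given to each ungapped eight-base word pooled with its reverse complement.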

Sequence | PBM E-score
GCCCTCTA | -0.146
CTCTCGAC | -0.156
GCGATTCA | 0.0123
AGCTGATC | -0.0102
CCTAGCTA | -0.00626
GCATACTA | 0.0261
CCTACCAG | -0.334
TGAAATCA | 0.101
CCGGGTCA | -0.183
CAGAAAGA | -0.047
CACATTTA | 0.112
AGGTTGTG | 0.0413
ATGGCCGC | -0.0765
CACGTAGA | -0.0666
CGTTTGGC | 0.00859
ATACAACC | -0.0813
ACCGATGA | -0.0808
CCCATTCA | -0.0881
ACTTGAAA | 0.0151
GAACCCCA | -0.0272
CGACTAAC | 0.0712
GATCGCGC | 0.118
TCCCTAGA | 0.001
GGTCGGCA | -0.195
AAGAGGCT | -0.154

Sequence | PBM E-score
ACATCTTC | -0.124
CACGATAA | 0.131
CATGCCGC | 0.165
CAACCTGA | -0.0704
CGTTCATA | -0.0124
ACGGAAAC | -0.0435
ACCTGGCC | 0.048
CATATACG | 0.0636
ACCGTTAA | 0.1
GAGTTTGA | 0.062
ATTTATCG | 0.098
CGAGTGCC | -0.174
AACAAGGA | 0.0892
GGAGCTCC | -0.175
CCTGGGCG | -0.178
GGTTATTA | 0.102
ATCACCCA | -0.0164
GTACGACA | 0.0788
ACCTATTG | -0.131
GGAATCCC | -0.122
GACAGCGA | -0.0527
GGATCACC | -0.0708
CTTAATTC | 0.177
CCGTGGCA | -0.0478
ACGAATAT | 0.268

Sequence | PBM E-score
CGCTTAGC | -0.0176
GCGGCTCC | -0.315
AGCACCCG | -0.139
CGTGCAAG | -0.0319
GAATCCAC | -0.115
CATATCCG | 0.137
AGCTCTAT | -0.003
AGGTAAAC | 0.105
ATATAGCG | -0.0745
CTCCGTCC | -0.0903
AGCACCAT | -0.274
CAACGTGC | -0.0688
AAAAGCAT | 0.0297
AATTCCGC | 0.134
GGACCATA | -0.233
ATGACCAC | 0.0111
GATTCAAC | 0.0284
GTGCGGAA | 0.0803
ACGATAGC | 0.0382
AAACACCG | 0.0237
AGCGACGC | 0.124
ACTTTAGA | -0.102
ACTTCACG | 0.0107
AGGGACAC | -0.0633
GGGGCTTA | -0.205

Sequence | PBM E-score
CAGTCTGC | -0.121
CACAGATA | 0.0872
ACGCATTC | 0.0308
CACAGGCA | -0.108
AAAGATGT | 0.0214
CCTAGCCC | -0.224
GAGGAGCC | -0.298
CGTTGATC | 0.0738
ATATCGCG | 0.267
AACGGAGA | 0.00419
CAATCTAA | -0.0478
AGTGTATA | -0.023
GAGTTCGC | 0.101
ACTCCAGG | -0.0811
GCTAGTAA | 0.00044
GACCGGTA | -0.341
AAACTACT | 0.082
CGCGTGAG | 0.269
AGCGAGCT | 0.139
AGGTTCAC | 0.0861
AACGGCTC | -0.029
AGCTGTCA | 0.114
AACGCCCA | 0.0142
CAGAAACC | 0.0934
CGTTCGGA | 0.129

Sequence | PBM E-score
CACAGGGA | -0.194
CGCCTTAG | 0.0418
CTCCACTC | -0.274
AACGTACA | 0.0359
CGGCCGGC | 0.00567
GGTAACTA | 0.169
CCTAAAAG | -0.178
CAGGAAAG | -0.272
CGTGCGTC | 0.149
CATTCACC | -0.00775
CAAGGCTG | -0.0461
GGCAGTCA | -0.00415
ACGCGTGA | 0.226
ACTGTGGC | -0.209
CCGAGTCG | 0.0136
ACTCTTAA | -0.0337
ACTCATGC | 0.0941
ACACTCAC | 0.0365
TAACGGCA | 0.0277
AACCTGCG | -0.142
CAGCCAAA | 0.138
CGCTTTCC | -0.0421
AAGTGGTG | 0.00917
GTGGTCGA | -0.14
GGGTCATA | -0.239

Two entries picked at random from those above, as already listed:
Sequence | PBM E-score
AAGTGGTG | 0.00917
CCTAGCTA | -0.00626

Additional records

Sequence | PBM E-score
AACACGGG | 0.0495
ACAAATCC | 0.214
CCGTAAGC | 0.117
CACCTTGA | -0.0765
ACCCACGC | -0.15
TTCGAGAA | 0.101
CCACGTGG | -0.139
AGACGCAC | 0.0398
CCTCGCCA | -0.268
GGCGGCTA | 0.0654
AGATCCTA | 0.0182
GCATCAAA | 0.0684
AAGACTAC | -0.0145
GACTGGCC | -0.09
CCACGTGC | 0.00023
CATCTACA | 0.06
AAGCAAGT | 0.0755
ATCCAAGC | -0.186
ATAGACTA | 0.0366
CCCACTAC | 0.0352
CCTCATCG | 0.0154
CGAATGCC | -0.242
CTTTAGTC | -0.162
ATGCCGCG | 0.202
GAGGTAGA | -0.2

Exported tab-delimited: part of the list above.
Sequence	PBM E-score
AGGTTGTG	0.0413
CAACCTGA	-0.0704
AGGTTCAC	0.0861
CAGAAACC	0.0934
ACTGTGGC	-0.209

Further results

Sequence | PBM E-score
GACTGGAC | -0.162
CTAGACTA | -0.11
CTAGGGGC | -0.174
CTTAAACA | 0.0833
GCCAGTAC | -0.205
CTGTCAGC | 0.118
CGCAACCC | 0.0754
ATCGAGGG | -0.0376
ACTACTGG | -0.15
GAGTACAC | -0.0711
CTAGGTTA | -0.0925
CATAAACA | 0.194
ACAGGTCT | -0.0496
GTGGAAAC | -0.0721
AAATTGAG | 0.0345
ATTAGCGG | 0.125
CGTTTAGC | 0.078
AACCCTTG | -0.176
ATCAGGCG | 0.073
ATAACCGC | 0.0583
AGCTAATA | 0.168
CATCGGAA | 0.167
